Source: the supplement of paper PMC12823440, “Inhibitors supercharge kinase turnover through native proteolytic circuits” (Nature, 2025)
Counter-ions that a name gives are not always drawn. Some of the results follow. Hit calls seldom repeat between salt and free forms of one compound.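 Kinases were expressed as nanoluciferase fusions in K562 cells and luminescence was read every 4 h between 2 and 18 h as percent of control, DMSO set to 100% and a positive control to 0%. A time point counts as decreased when the signal drops significantly (2 sigma). The hit call is the authors' own, does not follow from the count of time points alone, and its rule is not shown.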

Sequences of proteins named here, by UniProt entry; tags and fusion partners are left off. A change or cut given only in a name is not applied to a line headed by its entry.
UniProt P28482, whole entry: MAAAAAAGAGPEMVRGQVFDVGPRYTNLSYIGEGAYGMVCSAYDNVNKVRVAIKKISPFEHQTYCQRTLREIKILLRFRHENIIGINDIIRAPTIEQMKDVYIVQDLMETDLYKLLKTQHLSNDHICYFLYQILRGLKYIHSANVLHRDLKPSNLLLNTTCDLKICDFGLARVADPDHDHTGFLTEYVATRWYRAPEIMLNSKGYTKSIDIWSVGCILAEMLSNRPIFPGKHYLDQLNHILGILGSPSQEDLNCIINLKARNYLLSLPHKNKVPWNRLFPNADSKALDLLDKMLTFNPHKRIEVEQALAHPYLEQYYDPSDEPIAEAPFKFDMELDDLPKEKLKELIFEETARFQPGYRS
UniProt P31152, whole entry: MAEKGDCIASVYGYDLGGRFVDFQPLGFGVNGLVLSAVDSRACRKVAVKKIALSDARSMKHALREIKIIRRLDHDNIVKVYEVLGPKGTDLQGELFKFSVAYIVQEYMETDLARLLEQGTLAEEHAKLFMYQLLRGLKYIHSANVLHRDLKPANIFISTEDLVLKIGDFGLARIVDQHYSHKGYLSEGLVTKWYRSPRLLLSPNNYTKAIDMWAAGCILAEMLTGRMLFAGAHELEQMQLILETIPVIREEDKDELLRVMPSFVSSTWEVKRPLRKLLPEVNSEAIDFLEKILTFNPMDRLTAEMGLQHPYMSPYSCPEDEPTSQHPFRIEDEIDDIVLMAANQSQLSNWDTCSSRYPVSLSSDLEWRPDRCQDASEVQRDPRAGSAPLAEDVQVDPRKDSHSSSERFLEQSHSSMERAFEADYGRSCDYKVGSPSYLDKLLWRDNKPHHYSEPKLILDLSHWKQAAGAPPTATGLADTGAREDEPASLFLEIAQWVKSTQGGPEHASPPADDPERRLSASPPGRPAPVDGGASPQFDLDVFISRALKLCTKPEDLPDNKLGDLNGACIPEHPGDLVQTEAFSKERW
UniProt P49137, whole entry, looked up: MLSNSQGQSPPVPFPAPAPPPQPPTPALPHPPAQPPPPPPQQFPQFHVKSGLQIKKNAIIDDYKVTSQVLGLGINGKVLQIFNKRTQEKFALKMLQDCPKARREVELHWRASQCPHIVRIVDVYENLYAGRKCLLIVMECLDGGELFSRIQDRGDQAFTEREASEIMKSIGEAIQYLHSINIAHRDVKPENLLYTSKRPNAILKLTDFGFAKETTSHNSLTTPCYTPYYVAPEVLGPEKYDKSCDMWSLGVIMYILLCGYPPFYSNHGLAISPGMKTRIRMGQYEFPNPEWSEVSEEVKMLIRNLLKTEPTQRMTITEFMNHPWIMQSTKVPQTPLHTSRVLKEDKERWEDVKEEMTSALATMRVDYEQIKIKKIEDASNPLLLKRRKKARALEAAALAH
UniProt Q9BUB5: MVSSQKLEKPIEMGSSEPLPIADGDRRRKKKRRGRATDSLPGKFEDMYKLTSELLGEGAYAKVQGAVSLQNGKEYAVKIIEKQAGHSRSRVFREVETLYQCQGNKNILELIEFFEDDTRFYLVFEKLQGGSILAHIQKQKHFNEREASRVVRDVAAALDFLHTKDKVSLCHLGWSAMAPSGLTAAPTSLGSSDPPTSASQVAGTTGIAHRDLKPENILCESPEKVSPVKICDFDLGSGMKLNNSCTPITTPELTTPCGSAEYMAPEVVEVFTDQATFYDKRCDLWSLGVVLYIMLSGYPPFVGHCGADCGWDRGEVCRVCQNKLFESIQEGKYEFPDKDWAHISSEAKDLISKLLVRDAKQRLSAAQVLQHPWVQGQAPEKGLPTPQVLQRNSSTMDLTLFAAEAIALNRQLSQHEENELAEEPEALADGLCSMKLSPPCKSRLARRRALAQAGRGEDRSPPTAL
UniProt Q16620, whole entry, looked up: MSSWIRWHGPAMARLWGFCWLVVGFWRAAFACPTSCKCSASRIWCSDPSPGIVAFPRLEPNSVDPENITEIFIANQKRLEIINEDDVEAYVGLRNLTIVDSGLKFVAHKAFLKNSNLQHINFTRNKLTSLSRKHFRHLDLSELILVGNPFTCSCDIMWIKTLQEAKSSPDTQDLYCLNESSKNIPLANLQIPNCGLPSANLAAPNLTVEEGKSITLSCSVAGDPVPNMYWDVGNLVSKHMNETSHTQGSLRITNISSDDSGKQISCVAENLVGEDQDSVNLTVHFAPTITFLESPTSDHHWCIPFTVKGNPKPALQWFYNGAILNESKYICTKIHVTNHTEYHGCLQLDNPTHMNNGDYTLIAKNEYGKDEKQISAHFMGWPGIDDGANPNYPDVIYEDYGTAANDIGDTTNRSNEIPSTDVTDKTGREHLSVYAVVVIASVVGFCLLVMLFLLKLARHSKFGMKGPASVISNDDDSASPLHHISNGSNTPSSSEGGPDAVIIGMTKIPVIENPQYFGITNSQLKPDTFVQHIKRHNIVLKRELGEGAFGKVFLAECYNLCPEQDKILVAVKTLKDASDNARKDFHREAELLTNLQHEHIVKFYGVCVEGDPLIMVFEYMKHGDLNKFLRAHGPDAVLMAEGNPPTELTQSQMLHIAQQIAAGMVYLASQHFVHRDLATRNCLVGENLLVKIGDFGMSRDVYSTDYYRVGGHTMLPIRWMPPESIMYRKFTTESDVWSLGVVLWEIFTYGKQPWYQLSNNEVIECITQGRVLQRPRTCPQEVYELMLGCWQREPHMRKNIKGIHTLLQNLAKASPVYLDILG
UniProt O96013: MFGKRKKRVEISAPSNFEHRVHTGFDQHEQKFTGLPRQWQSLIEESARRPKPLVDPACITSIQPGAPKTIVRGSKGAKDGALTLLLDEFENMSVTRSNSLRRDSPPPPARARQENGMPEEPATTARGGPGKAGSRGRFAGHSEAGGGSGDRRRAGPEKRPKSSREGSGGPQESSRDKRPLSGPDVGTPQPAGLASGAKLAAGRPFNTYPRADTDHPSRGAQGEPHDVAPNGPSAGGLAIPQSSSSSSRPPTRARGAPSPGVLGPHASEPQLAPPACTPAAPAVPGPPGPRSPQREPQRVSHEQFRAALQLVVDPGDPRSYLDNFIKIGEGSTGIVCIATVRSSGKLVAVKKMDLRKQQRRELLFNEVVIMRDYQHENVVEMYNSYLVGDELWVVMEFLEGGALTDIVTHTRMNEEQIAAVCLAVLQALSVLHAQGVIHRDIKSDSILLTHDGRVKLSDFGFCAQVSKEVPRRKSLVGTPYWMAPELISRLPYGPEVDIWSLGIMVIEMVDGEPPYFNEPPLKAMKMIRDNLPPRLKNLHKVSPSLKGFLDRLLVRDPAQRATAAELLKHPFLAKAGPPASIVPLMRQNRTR
UniProt P09619, whole entry: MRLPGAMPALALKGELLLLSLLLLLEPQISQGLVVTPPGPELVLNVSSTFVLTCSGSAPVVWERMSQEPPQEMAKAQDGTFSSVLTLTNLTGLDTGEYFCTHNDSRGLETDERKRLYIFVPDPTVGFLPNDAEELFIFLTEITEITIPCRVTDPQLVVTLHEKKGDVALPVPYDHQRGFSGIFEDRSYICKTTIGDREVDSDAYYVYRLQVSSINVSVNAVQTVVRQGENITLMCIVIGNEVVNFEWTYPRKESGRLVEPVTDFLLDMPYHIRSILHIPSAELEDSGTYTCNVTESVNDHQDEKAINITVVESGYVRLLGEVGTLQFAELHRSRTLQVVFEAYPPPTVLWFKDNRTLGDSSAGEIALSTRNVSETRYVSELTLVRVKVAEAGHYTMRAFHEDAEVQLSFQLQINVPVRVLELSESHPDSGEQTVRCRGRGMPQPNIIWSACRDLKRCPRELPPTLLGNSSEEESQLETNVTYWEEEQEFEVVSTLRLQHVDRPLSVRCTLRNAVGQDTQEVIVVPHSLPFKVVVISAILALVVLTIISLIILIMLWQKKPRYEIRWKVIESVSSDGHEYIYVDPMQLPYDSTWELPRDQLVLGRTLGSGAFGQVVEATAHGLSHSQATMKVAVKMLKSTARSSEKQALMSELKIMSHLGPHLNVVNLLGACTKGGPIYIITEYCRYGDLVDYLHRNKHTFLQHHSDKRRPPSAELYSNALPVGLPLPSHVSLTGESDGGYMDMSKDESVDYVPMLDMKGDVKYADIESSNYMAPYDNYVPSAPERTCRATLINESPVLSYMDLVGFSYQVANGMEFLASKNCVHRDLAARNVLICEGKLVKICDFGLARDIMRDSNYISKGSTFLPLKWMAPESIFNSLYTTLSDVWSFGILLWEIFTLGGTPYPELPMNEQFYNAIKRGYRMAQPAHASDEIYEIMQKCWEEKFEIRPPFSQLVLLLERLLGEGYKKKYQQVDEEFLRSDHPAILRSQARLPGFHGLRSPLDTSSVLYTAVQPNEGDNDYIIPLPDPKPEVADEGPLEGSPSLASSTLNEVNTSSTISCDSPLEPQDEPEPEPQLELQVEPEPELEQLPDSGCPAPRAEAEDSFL
UniProt Q15118, whole entry, looked up: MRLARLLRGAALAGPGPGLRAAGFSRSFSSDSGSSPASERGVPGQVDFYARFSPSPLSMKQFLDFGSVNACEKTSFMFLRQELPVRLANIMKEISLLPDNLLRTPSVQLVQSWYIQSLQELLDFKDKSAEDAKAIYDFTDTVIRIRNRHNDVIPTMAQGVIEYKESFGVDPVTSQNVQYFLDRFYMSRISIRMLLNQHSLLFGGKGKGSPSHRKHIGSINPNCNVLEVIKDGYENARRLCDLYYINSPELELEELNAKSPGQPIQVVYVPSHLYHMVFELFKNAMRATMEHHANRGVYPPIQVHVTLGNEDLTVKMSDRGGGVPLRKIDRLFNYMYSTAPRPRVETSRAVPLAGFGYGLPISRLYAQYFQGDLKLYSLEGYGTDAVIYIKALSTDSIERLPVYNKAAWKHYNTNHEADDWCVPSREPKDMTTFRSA
UniProt Q9UBF8: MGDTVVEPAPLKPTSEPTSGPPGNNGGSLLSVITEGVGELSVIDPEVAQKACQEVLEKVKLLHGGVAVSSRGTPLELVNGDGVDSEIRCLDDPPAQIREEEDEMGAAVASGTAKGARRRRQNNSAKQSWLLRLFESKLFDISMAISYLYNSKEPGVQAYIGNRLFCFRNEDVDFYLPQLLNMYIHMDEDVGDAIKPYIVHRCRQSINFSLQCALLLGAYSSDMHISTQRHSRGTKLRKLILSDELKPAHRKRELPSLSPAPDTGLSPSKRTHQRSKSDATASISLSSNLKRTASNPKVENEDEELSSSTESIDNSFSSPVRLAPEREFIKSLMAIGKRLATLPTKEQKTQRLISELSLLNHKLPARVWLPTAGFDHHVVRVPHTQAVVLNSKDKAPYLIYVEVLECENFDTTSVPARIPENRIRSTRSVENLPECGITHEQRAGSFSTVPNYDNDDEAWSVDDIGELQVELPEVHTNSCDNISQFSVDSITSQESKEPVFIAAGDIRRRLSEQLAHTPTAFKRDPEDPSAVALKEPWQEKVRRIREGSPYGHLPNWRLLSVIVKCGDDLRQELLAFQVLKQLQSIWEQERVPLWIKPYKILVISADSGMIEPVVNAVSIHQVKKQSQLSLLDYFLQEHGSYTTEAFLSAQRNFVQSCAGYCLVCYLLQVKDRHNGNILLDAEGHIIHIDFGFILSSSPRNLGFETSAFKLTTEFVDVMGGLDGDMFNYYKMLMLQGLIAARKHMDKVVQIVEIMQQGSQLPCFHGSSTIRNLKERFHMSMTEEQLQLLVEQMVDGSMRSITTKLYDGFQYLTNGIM
UniProt Q14289, whole entry, looked up: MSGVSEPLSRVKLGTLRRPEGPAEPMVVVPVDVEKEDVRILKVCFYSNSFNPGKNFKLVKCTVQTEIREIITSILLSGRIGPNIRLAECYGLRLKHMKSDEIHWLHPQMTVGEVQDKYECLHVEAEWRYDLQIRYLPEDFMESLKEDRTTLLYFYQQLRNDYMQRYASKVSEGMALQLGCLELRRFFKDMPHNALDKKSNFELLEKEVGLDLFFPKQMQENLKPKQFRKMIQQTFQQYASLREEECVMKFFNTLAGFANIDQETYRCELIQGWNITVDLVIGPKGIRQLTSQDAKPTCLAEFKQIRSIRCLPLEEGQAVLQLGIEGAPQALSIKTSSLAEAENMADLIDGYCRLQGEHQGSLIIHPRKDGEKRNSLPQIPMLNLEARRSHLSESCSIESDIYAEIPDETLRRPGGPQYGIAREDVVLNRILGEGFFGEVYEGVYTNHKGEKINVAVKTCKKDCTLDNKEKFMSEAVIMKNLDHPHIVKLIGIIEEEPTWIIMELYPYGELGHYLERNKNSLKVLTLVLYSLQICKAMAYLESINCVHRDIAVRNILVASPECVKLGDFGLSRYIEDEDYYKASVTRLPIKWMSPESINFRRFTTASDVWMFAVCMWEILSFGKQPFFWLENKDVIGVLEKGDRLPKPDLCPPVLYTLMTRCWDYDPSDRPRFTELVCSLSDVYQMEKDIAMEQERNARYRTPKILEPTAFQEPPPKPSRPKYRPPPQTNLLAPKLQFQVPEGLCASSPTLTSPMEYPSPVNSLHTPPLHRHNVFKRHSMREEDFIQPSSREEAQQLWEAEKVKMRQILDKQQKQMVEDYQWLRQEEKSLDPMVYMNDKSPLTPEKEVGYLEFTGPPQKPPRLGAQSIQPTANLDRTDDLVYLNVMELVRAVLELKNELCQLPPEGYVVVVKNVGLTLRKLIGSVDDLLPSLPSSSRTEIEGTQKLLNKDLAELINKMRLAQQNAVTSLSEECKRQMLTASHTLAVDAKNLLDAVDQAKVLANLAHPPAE

Key:
Test in all cases: kinase-Nluc reporter destabilization hit call (1 = scored as downregulated) (binary); higher = compound decreases kinase abundance
Conditions in all cases: K562; 2-18 h
MAPK1 = MAPK1 (UniProt P28482)
MAPK4 = MAPK4 (UniProt P31152)
MAPKAPK2 = MAPKAPK2 (UniProt P49137)
MKNK1 = MKNK1 (UniProt Q9BUB5)
NTRK2 = NTRK2 (UniProt Q16620)
NTRK3 = NTRK3 (UniProt Q16288)
PAK4 = PAK4 (UniProt O96013)
PBK = PBK (UniProt Q96KB5)
PDGFRB = PDGFRB (UniProt P09619)
PDK1 = PDK1 (UniProt Q15118)
PDPK1 = PDPK1 (UniProt O15530)
PIK4CA = PIK4CA (UniProt P42356)
PIK4CB = PIK4CB (UniProt Q9UBF8)
PLK1 = PLK1 (UniProt P53350)
PRKAA1 = PRKAA1 (UniProt Q13131)
PRKCA = PRKCA (UniProt P17252)
PTK2 = PTK2 (UniProt Q05397)
PTK2B = PTK2B (UniProt Q14289)
RAF1 = RAF1 (UniProt P04049)
[1] = target: RAF1_S257L (clone: RAF1_mut) (UniProt P04049)

Measured: kinase-Nluc reporter destabilization hit call

Cc1cc(C)cc(NC(N)=Nc2ccccc2C(F)(F)F)c1 (10 µM)
inactive: MAPK1 = 0 | MAPK4 = 0 | MAPKAPK2 = 0 | MKNK1 = 0 | NTRK2 = 0 | NTRK3 = 0 | PAK4 = 0 | PBK 0 | PDGFRB 0 | PDK1 = 0 | PDPK1 = 0 | PIK4CA 0 | PIK4CB 0 | PLK1 = 0 | PRKAA1 = 0 | PRKCA 0 | PTK2 = 0 | PTK2B 0 | RAF1 = 0 | [1] 0

C=CC(=O)Nc1cccc(Oc2nc(Nc3ccc(N4CCN(C)CC4)c(F)c3)nc3[nH]ccc23)c1 [Avitinib (maleate)] (2.5 µM)
inactive: MAPK1 = 0 | MAPK4 = 0 | MAPKAPK2 = 0 | MKNK1 = 0 | NTRK2 = 0 | NTRK3 = 0 | PAK4 = 0 | PBK 0 | PDGFRB 0 | PDK1 = 0 | PDPK1 = 0 | PIK4CA 0 | PIK4CB 0 | PLK1 = 0 | PRKAA1 = 0 | PRKCA 0 | PTK2 = 0 | PTK2B 0 | RAF1 = 0 | [1] 0

NCCOc1ccc(Cl)cc1C(=O)Nc1ccc([N+](=O)[O-])cc1Cl [HJC0152 hydrochloride] (2 µM)
inactive: MAPK1 = 0 | MAPK4 = 0 | MAPKAPK2 = 0 | MKNK1 = 0 | NTRK2 = 0 | NTRK3 = 0 | PAK4 = 0 | PBK 0 | PDGFRB 0 | PDK1 = 0 | PDPK1 = 0 | PIK4CA 0 | PIK4CB 0 | PLK1 = 0 | PRKAA1 = 0 | PRKCA 0 | PTK2 = 0 | PTK2B 0 | RAF1 = 0 | [1] 0

COC(=O)Nc1ccc(-c2nc(N3CCOCC3)c3cnn(C4CCN(C(=O)OC)CC4)c3n2)cc1 (10 µM)
inactive: MAPK1 = 0 | MAPK4 = 0 | MAPKAPK2 = 0 | MKNK1 = 0 | NTRK2 = 0 | NTRK3 = 0 | PAK4 = 0 | PBK 0 | PDGFRB 0 | PDK1 = 0 | PDPK1 = 0 | PIK4CA 0 | PIK4CB 0 | PLK1 = 0 | PRKAA1 = 0 | PRKCA 0 | PTK2 = 0 | PTK2B 0 | RAF1 = 0 | [1] 0

CO[C@H]1CC[C@H](N2C(=O)CNc3ncc(-c4ccc(C(C)(C)O)nc4)nc32)CC1 (2.5 µM)
inactive: MAPK1 = 0 | MAPK4 = 0 | MAPKAPK2 = 0 | MKNK1 = 0 | NTRK2 = 0 | NTRK3 = 0 | PAK4 = 0 | PBK 0 | PDGFRB 0 | PDK1 = 0 | PDPK1 = 0 | PIK4CA 0 | PIK4CB 0 | PLK1 = 0 | PRKAA1 = 0 | PRKCA 0 | PTK2 = 0 | PTK2B 0 | RAF1 = 0 | [1] 0

Fc1ccc2[nH]ccc2c1-c1nc(N2CCOCC2)c2sc(CN3CCN(CC4CC4)CC3)cc2n1 (10 µM)
inactive: MAPK1 = 0 | MAPK4 = 0 | MAPKAPK2 = 0 | MKNK1 = 0 | NTRK2 = 0 | NTRK3 = 0 | PAK4 = 0 | PBK 0 | PDGFRB 0 | PDK1 = 0 | PDPK1 = 0 | PIK4CA 0 | PIK4CB 0 | PLK1 = 0 | PRKAA1 = 0 | PRKCA 0 | PTK2 = 0 | PTK2B 0 | RAF1 = 0 | [1] 0

CC(C)CCN1c2nc(Nc3cc(F)c(O)c(F)c3)ncc2N(C)C(=O)C1C (stereo not given) (2.5 µM)
inactive: MAPK1 = 0 | MAPK4 = 0 | MAPKAPK2 = 0 | MKNK1 = 0 | NTRK2 = 0 | NTRK3 = 0 | PAK4 = 0 | PBK 0 | PDGFRB 0 | PDK1 = 0 | PDPK1 = 0 | PIK4CA 0 | PIK4CB 0 | PLK1 = 0 | PRKAA1 = 0 | PRKCA 0 | PTK2 = 0 | PTK2B 0 | RAF1 = 0 | [1] 0

O=C1NC(=O)/C(=C\c2c[nH]c(=O)c(-c3ccc(N4CCNCC4)nc3)c2)S1 [Protein kinase inhibitors 1 hydrochloride] (10 µM)
inactive: MAPK1 = 0 | MAPK4 = 0 | MAPKAPK2 = 0 | MKNK1 = 0 | NTRK2 = 0 | NTRK3 = 0 | PAK4 = 0 | PBK 0 | PDGFRB 0 | PDK1 = 0 | PDPK1 = 0 | PIK4CA 0 | PIK4CB 0 | PLK1 = 0 | PRKAA1 = 0 | PRKCA 0 | PTK2 = 0 | PTK2B 0 | RAF1 = 0 | [1] 0

CNC(=O)CNc1cnc2ccc(-c3ccc(OC)c(OC)c3)cc2n1 (10 µM)
inactive: MAPK1 = 0 | MAPK4 = 0 | MAPKAPK2 = 0 | MKNK1 = 0 | NTRK2 = 0 | NTRK3 = 0 | PAK4 = 0 | PBK 0 | PDGFRB 0 | PDK1 = 0 | PDPK1 = 0 | PIK4CA 0 | PIK4CB 0 | PLK1 = 0 | PRKAA1 = 0 | PRKCA 0 | PTK2 = 0 | PTK2B 0 | RAF1 = 0 | [1] 0

Cc1ccc(C)c(OCCn2cc(C(=O)O)c3ccccc32)c1 (10 µM)
inactive: MAPK1 = 0 | MAPK4 = 0 | MAPKAPK2 = 0 | MKNK1 = 0 | NTRK2 = 0 | NTRK3 = 0 | PAK4 = 0 | PBK 0 | PDGFRB 0 | PDK1 = 0 | PDPK1 = 0 | PIK4CA 0 | PIK4CB 0 | PLK1 = 0 | PRKAA1 = 0 | PRKCA 0 | PTK2 = 0 | PTK2B 0 | RAF1 = 0 | [1] 0

O=C(Nc1ccc(Cl)cc1)C1CCCN(C(=O)c2cc(C(F)(F)F)cc(C(F)(F)F)c2)C1 (stereo not given) (10 µM)
inactive: MAPK1 = 0 | MAPK4 = 0 | MAPKAPK2 = 0 | MKNK1 = 0 | NTRK2 = 0 | NTRK3 = 0 | PAK4 = 0 | PBK 0 | PDGFRB 0 | PDK1 = 0 | PDPK1 = 0 | PIK4CA 0 | PIK4CB 0 | PLK1 = 0 | PRKAA1 = 0 | PRKCA 0 | PTK2 = 0 | PTK2B 0 | RAF1 = 0 | [1] 0

Already shown: 2 of the compounds above.
CC(C)CCN1c2nc(Nc3cc(F)c(O)c(F)c3)ncc2N(C)C(=O)C1C (stereo not given) (2.5 µM)
inactive: MAPK1 = 0 | MAPK4 = 0 | MAPKAPK2 = 0 | MKNK1 = 0 | NTRK2 = 0 | NTRK3 = 0 | PAK4 = 0 | PBK 0 | PDGFRB 0 | PDK1 = 0 | PDPK1 = 0 | PIK4CA 0 | PIK4CB 0 | PLK1 = 0 | PRKAA1 = 0 | PRKCA 0 | PTK2 = 0 | PTK2B 0 | RAF1 = 0 | [1] 0

O=C1NC(=O)/C(=C\c2c[nH]c(=O)c(-c3ccc(N4CCNCC4)nc3)c2)S1 [Protein kinase inhibitors 1 hydrochloride] (10 µM)
inactive: MAPK1 = 0 | MAPK4 = 0 | MAPKAPK2 = 0 | MKNK1 = 0 | NTRK2 = 0 | NTRK3 = 0 | PAK4 = 0 | PBK 0 | PDGFRB 0 | PDK1 = 0 | PDPK1 = 0 | PIK4CA 0 | PIK4CB 0 | PLK1 = 0 | PRKAA1 = 0 | PRKCA 0 | PTK2 = 0 | PTK2B 0 | RAF1 = 0 | [1] 0

Additional structures follow.

CCN(CC)CCOc1ccc(Nc2nc(-c3ccccc3NC(=O)CCN3CCN(C)CC3)nc3ccccc23)cc1 (2.5 µM)
inactive: MAPK1 = 0 | MAPK4 = 0 | MAPKAPK2 = 0 | MKNK1 = 0 | NTRK2 = 0 | NTRK3 = 0 | PAK4 = 0 | PBK 0 | PDGFRB 0 | PDK1 = 0 | PDPK1 = 0 | PIK4CA 0 | PIK4CB 0 | PLK1 = 0 | PRKAA1 = 0 | PRKCA 0 | PTK2 = 0 | PTK2B 0 | RAF1 = 0 | [1] 0

Nc1nc(NCCNc2ncc(-n3ccnc3)c(-c3ccc(Cl)cc3Cl)n2)ccc1[N+](=O)[O-] (2.5 µM)
inactive: MAPK1 = 0 | MAPK4 = 0 | MAPKAPK2 = 0 | MKNK1 = 0 | NTRK2 = 0 | NTRK3 = 0 | PAK4 = 0 | PBK 0 | PDGFRB 0 | PDK1 = 0 | PDPK1 = 0 | PIK4CA 0 | PIK4CB 0 | PLK1 = 0 | PRKAA1 = 0 | PRKCA 0 | PTK2 = 0 | PTK2B 0 | RAF1 = 0 | [1] 0

C=CC(=O)N1CC[C@@H](Oc2nc(Nc3ccc(N4CCC(N5CCN(C)CC5)CC4)cc3)c(C(N)=O)nc2CC)C1 [Naquotinib (mesylate)] (2.5 µM)
inactive: MAPK1 = 0 | MAPK4 = 0 | MAPKAPK2 = 0 | MKNK1 = 0 | NTRK2 = 0 | NTRK3 = 0 | PAK4 = 0 | PBK 0 | PDGFRB 0 | PDK1 = 0 | PDPK1 = 0 | PIK4CA 0 | PIK4CB 0 | PLK1 = 0 | PRKAA1 = 0 | PRKCA 0 | PTK2 = 0 | PTK2B 0 | RAF1 = 0 | [1] 0

Cc1cccc(-c2[nH]ncc2-c2ccnc3ccccc23)n1 (10 µM)
inactive: MAPK1 = 0 | MAPK4 = 0 | MAPKAPK2 = 0 | MKNK1 = 0 | NTRK2 = 0 | NTRK3 = 0 | PAK4 = 0 | PBK 0 | PDGFRB 0 | PDK1 = 0 | PDPK1 = 0 | PIK4CA 0 | PIK4CB 0 | PLK1 = 0 | PRKAA1 = 0 | PRKCA 0 | PTK2 = 0 | PTK2B 0 | RAF1 = 0 | [1] 0

COCCOc1ccc2c(c1)ncn2-c1ccc2cccc(N3CCC(N)CC3)c2n1 (10 µM)
active: [1] 1
inactive: MAPK1 = 0 | MAPK4 = 0 | MAPKAPK2 = 0 | MKNK1 = 0 | NTRK2 = 0 | NTRK3 = 0 | PAK4 = 0 | PBK 0 | PDGFRB 0 | PDK1 = 0 | PDPK1 = 0 | PIK4CA 0 | PIK4CB 0 | PLK1 = 0 | PRKAA1 = 0 | PRKCA 0 | PTK2 = 0 | PTK2B 0 | RAF1 = 0

NC(=O)c1cnc(-c2ccc(C3(N)CCC3)cc2)c(-c2ccccc2)c1 (10 µM)
inactive: MAPK1 = 0 | MAPK4 = 0 | MAPKAPK2 = 0 | MKNK1 = 0 | NTRK2 = 0 | NTRK3 = 0 | PAK4 = 0 | PBK 0 | PDGFRB 0 | PDK1 = 0 | PDPK1 = 0 | PIK4CA 0 | PIK4CB 0 | PLK1 = 0 | PRKAA1 = 0 | PRKCA 0 | PTK2 = 0 | PTK2B 0 | RAF1 = 0 | [1] 0

N#C/C(=C\c1ccc(O)c(O)c1)C(=O)O [Tyrphostin AG30] (10 µM)
inactive: MAPK1 = 0 | MAPK4 = 0 | MAPKAPK2 = 0 | MKNK1 = 0 | NTRK2 = 0 | NTRK3 = 0 | PAK4 = 0 | PBK 0 | PDGFRB 0 | PDK1 = 0 | PDPK1 = 0 | PIK4CA 0 | PIK4CB 0 | PLK1 = 0 | PRKAA1 = 0 | PRKCA 0 | PTK2 = 0 | PTK2B 0 | RAF1 = 0 | [1] 0
